Source: ChEMBL document CHEMBL1157379, “Transcriptional response of Candida parapsilosis following exposure to farnesol” (2007)
This continues a long series; more values of the same kind are listed elsewhere.

Tests used:
Type in all cases: functional
Candida parapsilosis [1] = experiment: Decrease in CGD gene ortholog accession number orf19.5751 expression in Candida parapsilosis CLIB214 at 50 uM after 2 hrs by microarray based transcriptional profiling relative to control
Candida parapsilosis [2] = experiment: Decrease in QCR2 gene expression in Candida parapsilosis CLIB214 at 50 uM after 2 hrs by microarray based transcriptional profiling relative to control
Candida parapsilosis [3] = experiment: Increase in CGD gene ortholog accession number orf19.239 expression in Candida parapsilosis CLIB214 at 50 uM after 2 hrs by microarray based transcriptional profiling relative to control
Candida parapsilosis [4] = experiment: Increase in CGD gene ortholog accession number orf19.5378 expression in Candida parapsilosis CLIB214 at 50 uM after 2 hrs by microarray based transcriptional profiling relative to control
Candida parapsilosis [5] = experiment: Increase in CGD gene ortholog accession number orf19.5602 expression in Candida parapsilosis CLIB214 at 50 uM after 2 hrs by microarray based transcriptional profiling relative to control
Candida parapsilosis [6] = experiment: Increase in CGD gene ortholog accession number orf19.1552 expression in Candida parapsilosis CLIB214 at 50 uM after 2 hrs by microarray based transcriptional profiling relative to control
Candida parapsilosis [7] = experiment: Increase in CGD gene ortholog accession number orf19.1864 expression in Candida parapsilosis CLIB214 at 50 uM after 2 hrs by microarray based transcriptional profiling relative to control
Candida parapsilosis [8] = experiment: Decrease in CGD gene ortholog accession number orf19.6797 expression in Candida parapsilosis CLIB214 at 50 uM after 2 hrs by microarray based transcriptional profiling relative to control
Candida parapsilosis [9] = experiment: Increase in CGD gene ortholog accession number orf19.3291 expression in Candida parapsilosis CLIB214 at 50 uM after 2 hrs by microarray based transcriptional profiling relative to control
Candida parapsilosis [10] = experiment: Decrease in DES1 gene expression in Candida parapsilosis CLIB214 at 50 uM after 2 hrs by microarray based transcriptional profiling relative to control
Candida parapsilosis [11] = experiment: Decrease in CGD gene ortholog accession number orf19.6071 expression in Candida parapsilosis CLIB214 at 50 uM after 2 hrs by microarray based transcriptional profiling relative to control
Candida parapsilosis [12] = experiment: Decrease in ADP1 gene expression in Candida parapsilosis CLIB214 at 50 uM after 2 hrs by microarray based transcriptional profiling relative to control
Candida parapsilosis [13] = experiment: Increase in ICL1 gene expression in Candida parapsilosis CLIB214 at 50 uM after 2 hrs by microarray based transcriptional profiling relative to control
Candida parapsilosis [14] = experiment: Increase in CGD gene ortholog accession number orf19.7237 expression in Candida parapsilosis CLIB214 at 50 uM after 2 hrs by microarray based transcriptional profiling relative to control
Candida parapsilosis [15] = experiment: Increase in CGD gene ortholog accession number orf19.5318 expression in Candida parapsilosis CLIB214 at 50 uM after 2 hrs by microarray based transcriptional profiling relative to control
Candida parapsilosis [16] = experiment: Increase in SPT6 gene expression in Candida parapsilosis CLIB214 at 50 uM after 2 hrs by microarray based transcriptional profiling relative to control
Candida parapsilosis [17] = experiment: Increase in UBI4 gene expression in Candida parapsilosis CLIB214 at 50 uM after 2 hrs by microarray based transcriptional profiling relative to control
Candida parapsilosis [18] = experiment: Decrease in GenBank accession number XP_459779.1 expression in Candida parapsilosis CLIB214 at 50 uM after 2 hrs by microarray based transcriptional profiling relative to control
Candida parapsilosis [19] = experiment: Increase in CGD gene ortholog accession number orf19.5544 expression in Candida parapsilosis CLIB214 at 50 uM after 2 hrs by microarray based transcriptional profiling relative to control
Candida parapsilosis [20] = experiment: Decrease in SAP5 gene expression in Candida parapsilosis CLIB214 at 50 uM after 2 hrs by microarray based transcriptional profiling relative to control
Candida parapsilosis [21] = experiment: Increase in CGD gene ortholog accession number orf19.1019 expression in Candida parapsilosis CLIB214 at 50 uM after 2 hrs by microarray based transcriptional profiling relative to control
Candida parapsilosis [22] = experiment: Increase in GenBank accession number NP_943642.1 expression in Candida parapsilosis CLIB214 at 50 uM after 2 hrs by microarray based transcriptional profiling relative to control
Candida parapsilosis [23] = experiment: Increase in RPS7A gene expression in Candida parapsilosis CLIB214 at 50 uM after 2 hrs by microarray based transcriptional profiling relative to control
Candida parapsilosis [24] = experiment: Decrease in CGD gene ortholog accession number orf19.7511 expression in Candida parapsilosis CLIB214 at 50 uM after 2 hrs by microarray based transcriptional profiling relative to control
Candida parapsilosis [25] = experiment: Decrease in CGD gene ortholog accession number orf19.478 expression in Candida parapsilosis CLIB214 at 50 uM after 2 hrs by microarray based transcriptional profiling relative to control
Candida parapsilosis [26] = experiment: Decrease in CGD gene ortholog accession number orf19.7589 expression in Candida parapsilosis CLIB214 at 50 uM after 2 hrs by microarray based transcriptional profiling relative to control
Candida parapsilosis [27] = experiment: Decrease in CGD gene ortholog accession number orf19.6323 expression in Candida parapsilosis CLIB214 at 50 uM after 2 hrs by microarray based transcriptional profiling relative to control
Candida parapsilosis [28] = experiment: Decrease in CGD gene ortholog accession number orf19.4595 expression in Candida parapsilosis CLIB214 at 50 uM after 2 hrs by microarray based transcriptional profiling relative to control
Candida parapsilosis [29] = experiment: Increase in CGD gene ortholog accession number orf19.188 expression in Candida parapsilosis CLIB214 at 50 uM after 2 hrs by microarray based transcriptional profiling relative to control
Candida parapsilosis [30] = experiment: Decrease in FMP27 gene expression in Candida parapsilosis CLIB214 at 50 uM after 2 hrs by microarray based transcriptional profiling relative to control
Candida parapsilosis [31] = experiment: Increase in LSP1 gene expression in Candida parapsilosis CLIB214 at 50 uM after 2 hrs by microarray based transcriptional profiling relative to control
Candida parapsilosis [32] = experiment: Decrease in CGD gene ortholog accession number orf19.1496 expression in Candida parapsilosis CLIB214 at 50 uM after 2 hrs by microarray based transcriptional profiling relative to control
Candida parapsilosis [33] = experiment: Decrease in TEM1 gene expression in Candida parapsilosis CLIB214 at 50 uM after 2 hrs by microarray based transcriptional profiling relative to control
Candida parapsilosis [34] = experiment: Increase in CGD gene ortholog accession number orf19.4681 expression in Candida parapsilosis CLIB214 at 50 uM after 2 hrs by microarray based transcriptional profiling relative to control
Candida parapsilosis [35] = experiment: Decrease in AOX1 gene expression in Candida parapsilosis CLIB214 at 50 uM after 2 hrs by microarray based transcriptional profiling relative to control
Candida parapsilosis [36] = experiment: Increase in CGD gene ortholog accession number orf19.843 expression in Candida parapsilosis CLIB214 at 50 uM after 2 hrs by microarray based transcriptional profiling relative to control

CC(C)=CCC/C(C)=C/CC/C(C)=C/CO [FARNESOL]
fold change (FC) (Candida parapsilosis [1]): 1.69 | fold change (FC) (Candida parapsilosis [2]): 1.56 | fold change (FC) (Candida parapsilosis [3]): 1.8 | fold change (FC) (Candida parapsilosis [4]): 1.66 | fold change (FC) (Candida parapsilosis [5]): 1.74 | fold change (FC) (Candida parapsilosis [6]): 2.05 | fold change (FC) (Candida parapsilosis [7]): 1.69 | fold change (FC) (Candida parapsilosis [8]): 1.63 | fold change (FC) (Candida parapsilosis [9]): 1.81 | fold change (FC) (Candida parapsilosis [10]): 2.22 | fold change (FC) (Candida parapsilosis [11]): 2.17 | fold change (FC) (Candida parapsilosis [12]): 1.71 | fold change (FC) (Candida parapsilosis [13]): 1.66 | fold change (FC) (Candida parapsilosis [14]): 1.57 | fold change (FC) (Candida parapsilosis [15]): 1.75 | fold change (FC) (Candida parapsilosis [16]): 2.3 | fold change (FC) (Candida parapsilosis [17]): 1.94 | fold change (FC) (Candida parapsilosis [18]): 1.6 | fold change (FC) (Candida parapsilosis [19]): 1.91 | fold change (FC) (Candida parapsilosis [20]): 1.93 | fold change (FC) (Candida parapsilosis [21]): 1.62 | fold change (FC) (Candida parapsilosis [22]): 1.95 | fold change (FC) (Candida parapsilosis [23]): 2.95 | fold change (FC) (Candida parapsilosis [24]): 1.74 | fold change (FC) (Candida parapsilosis [25]): 1.56 | fold change (FC) (Candida parapsilosis [26]): 1.77 | fold change (FC) (Candida parapsilosis [27]): 1.54 | fold change (FC) (Candida parapsilosis [28]): 1.95 | fold change (FC) (Candida parapsilosis [29]): 1.55 | fold change (FC) (Candida parapsilosis [30]): 1.67 | fold change (FC) (Candida parapsilosis [31]): 1.65 | fold change (FC) (Candida parapsilosis [32]): 2.69 | fold change (FC) (Candida parapsilosis [33]): 1.64 | fold change (FC) (Candida parapsilosis [34]): 1.55 | fold change (FC) (Candida parapsilosis [35]): 2 | fold change (FC) (Candida parapsilosis [36]): 1.74
